Values quoted from earlier work as cited in patent US20210353650A1 (priority 2020, published 2021).
For at least one compound, name, drawing or mass did not settle the structure.

Assays:
SARS strain Toronto 2 = conditions: 2012 study, read-out: CPE activity IC50
[1] = test system: SARS-CoV-2 (strain nCoV-2019BetaCoV/Wuhan/WIV04/2019); conditions: SARS-CoV-2 in infected Vero E6 cells, qRT-PCR

In the case of `CCC(CC)COC(=O)[C@H](C)N[P@](=O)(OC[C@H]1O[C@@](C#N)(c2ccc3c(N)ncnn23)[C@H](O)[C@@H]1O)Oc1ccccc1` [Remdesivir], the IC50 (SARS strain Toronto 2) is given as 2200 nM, the IC50 [1] is given as 770 nM and the IC90 [1] is given as 1760 nM.
